Laboratory results as given in PubChem BioAssay AID2685 (National Center for Advancing Translational Sciences (NCATS), 2010).
This is one part of the list. Further columns of the screen follow, without active or inactive calls. Compounds called inactive in the main read-out are mostly missing here. Words in brackets tell the shape of the fitted curve; partial curves, single points and poor fits give uncertain potencies.

Assay: qHTS Assay for Lipid Storage Modulators in Drosophila S3 Cells;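 on cell number change: cells counted by Cell Tracker Red CMTPX staining in the red channel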
Settings: BODIPY lipid droplet fluorescence, 18-24 h; for cell number change: measured here: cell count max response, cells fed with added oleic acid
In short: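 Laser-scanning cytometry quantifies lipid droplet accumulation (500–530 nm total intensity; droplet/cell object ratio) in oleic acid-fed (400 uM added) Drosophila S3 cells treated with a concentration series. 20 uM Triacsin C defined 100% inhibition.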

[1] = measured here: cell number channel AC50, cells fed with added oleic acid
[2] = measured here: lipid fluorescence (Fed channel) AC50, cells fed with added oleic acid

Compound | cell number change [%] | AC50 [1] | AC50 [2]
O=C(NCc1ccc(Cl)cc1)c1cc(S(=O)(=O)N2CCCCC2)c[nH]1 | 5.69 | 0.651 µM [rising, full curve, poor fit] | 8.2 µM [falling, partial curve]
O=S(=O)(c1cccc2ccccc12)N1CCCCC1 | 14.4 |  | 
COC(=O)CNC(=O)C1CCN(S(=O)(=O)c2cnc[nH]2)CC1 |  |  | 0.291 µM [falling, full curve]
COc1ccc(NC(=O)CN2C(=O)NC3(CCCC3)C2=O)cc1Cl | -15.3 |  | 0.58 µM [falling, single point]
CC(C)NC(=O)CCn1c(=S)oc2ccccc21 | 23.8 |  | 6.51 µM [falling, single point]
COCCn1c(C)cc(C(=O)CSc2cc(C)c3ccccc3n2)c1C | -16.1 |  | 0.00461 µM [falling, full curve, poor fit]
CC1CCN(CCCNC(=O)C2CC(=O)N(CCc3ccccc3)C2)CC1 (stereo unspecified) | 6.49 |  | 0.651 µM [rising, full curve, poor fit]
Cn1c(=O)c2c(n(Cc3ccccc3)c1=O)NC(=O)C2CC(=O)O (stereo unspecified) | -14.8 | 0.058 µM [falling, full curve, poor fit] | 1.3 µM [falling, full curve]
CC1(N2CCCCC2)CC2(O)C(=[N+]1[O-])CCC/C2=N\O (stereo unspecified) | 4.78 |  | 
Cc1n[nH]c(=O)c2c(NC(=O)CSc3nnc(-c4ccncc4)n3C)oc(C)c12 | 2.19 |  | 
S=c1nc[nH]c2c1sc1nc(-c3ccccc3)c3c(c12)CCCC3 | -31 | 14.6 µM [falling, single point] | 16.4 µM [falling, single point]
O=C(/C=C/c1ccccc1)OCc1cncs1 | 3.43 |  | 
Cc1ccc2c(=O)cc(C(=O)NCCc3ccc(S(N)(=O)=O)cc3)oc2c1C | 2.1 |  | 6.51 µM [rising, single point]
Cc1cc(Nc2cccc([N+](=O)[O-])c2)n2c(nc3ccccc32)c1C#N | -93 | 29.1 µM [falling, single point] | 
COC(=O)c1nnn(-c2nc(N3CCOCC3)nc(N3CCOCC3)n2)c1C | 12 | 0.164 µM [falling, full curve, poor fit] | 
COc1ccc(C2C(C#N)=C(N)OC3=C2C(=O)CC(C)(C)C3)cc1 (stereo unspecified) | 30.3 | 0.00517 µM [rising, full curve, poor fit] | 
CCOC(=O)C1CCCN(C(=O)Nc2ccccc2)C1 (stereo unspecified) | -29.6 |  | 29.1 µM [falling, single point]
C=CCn1c(C)cc(-c2csc(NC(=O)CCc3nc4ccccc4c(=O)[nH]3)n2)c1C |  | 0.326 µM [rising, full curve] | 
CN(C(=O)c1ccnn1C)C1CCCN(Cc2ccccc2F)C1 (stereo unspecified) | 15.3 |  | 
COC(=O)N/N=C\c1cc(Br)ccc1OCc1ccccc1 |  |  | 25.9 µM [rising, partial curve]
C/C(=N\NC(=O)c1cccc(Br)c1)c1cccnc1 | 26.2 |  | 0.58 µM [falling, single point]

Compound | cell number change [%] | AC50 [1] | AC50 [2]
Cc1c(NC(=O)c2cc(-c3ccc(Cl)c(Cl)c3)on2)c(=O)n(-c2ccccc2)n1C | 27 |  | 13 µM [rising, partial curve]
O=C(O)CN(c1ccccc1)C1SC(=O)NC1=O (stereo unspecified) |  |  | 14.6 µM [falling, partial curve, poor fit]
COc1ccc(C(C)(C)C)cc1NC(=O)c1ccc2c(c1)SC1=NS(=O)(=O)CCN12 | 13.7 |  | 
O=C(Nc1ccccc1N1CCOCC1)C1(c2ccc(Cl)cc2)CCC1 | 123 | 29.1 µM [rising, single point] | 29.1 µM [rising, partial curve]
COc1ccc(NC(C)=O)cc1NC(C)C(=O)Nc1cccc(S(=O)(=O)N2CCOCC2)c1 (stereo unspecified) | -1.95 |  | 4.11 µM [rising, single point]
COc1ccc(OC)c(NC(=O)CCN2CC(C)CC(C)C2)c1 (stereo unspecified) | 4.74 |  | 3.66 µM [rising, partial curve, poor fit]
CN1CCN(C(=S)NC(=O)c2ccc(S(=O)(=O)N3CCOCC3)cc2)CC1 |  |  | 29.1 µM [falling, single point]
Cc1ccc(-n2c(SCC(=O)N/N=C/c3c(C)nn(-c4ccccc4)c3C)nc3ccccc3c2=O)cc1 | 5.12 |  | 0.651 µM [rising, partial curve]
CCCCC(OC(=O)CN1C(=O)COc2ccccc21)C(=O)NC1CCCCC1 (stereo unspecified) | -1.28 |  | 0.116 µM [rising, single point]
O=C(NCC1CCCCC1)c1ccc(F)cc1Cl | -17.2 |  | 0.13 µM [falling, full curve, poor fit]
CC(=O)N1CC(C)Sc2ccc(S(=O)(=O)NCCc3cccc(C)c3)cc21 (stereo unspecified) | 13.4 |  | 29.1 µM [falling, single point]
COc1ccc(C(O)c2nc3ccccc3s2)cc1 (stereo unspecified) | 0.281 |  | 0.116 µM [rising, full curve, poor fit]
O=C(COC(=O)C1=Cc2ccccc2OC1)NCc1ccco1 | 14.2 |  | 0.206 µM [rising, full curve, poor fit]
Cc1nnc(SCC(=O)N/N=C/c2cn(-c3ccccc3)nc2-c2ccc(F)cc2)n1-c1ccccc1 | 2.48 |  | 2.06 µM [rising, full curve]
CCN(CC)c1ccc2cc(C(=O)NCc3ccc(F)cc3)c(=N)oc2c1 | -21.4 |  | 0.164 µM [rising, full curve]
O=C(Sc1cccc2cccnc12)c1ccc(F)cc1 | -36.1 | 8.2 µM [falling, partial curve, poor fit] | 8.2 µM [falling, partial curve]
CCN(CC)c1ccc(NC(=O)c2ccco2)c(C)c1 | 22.1 |  | 29.1 µM [rising, single point]
NNc1nc(Nc2ccccc2)nc(Nc2ccccc2)n1 | 12.7 | 0.0731 µM [rising, full curve] | 0.92 µM [rising, full curve, poor fit]
COC(=O)c1c(C)oc2ccc(N(C(=O)c3ccncc3)S(=O)(=O)c3ccc(C)cc3C)cc12 | 3.33 | 6.51 µM [falling, single point] | 0.82 µM [rising, partial curve]
COc1cc(C=O)ccc1Oc1cnccn1 | 26.8 |  | 
O=C(O)c1cccc(COc2ccccc2Cl)c1 | -171 | 29.1 µM [falling, single point] | 

Compound | cell number change [%] | AC50 [1] | AC50 [2]
Cc1ccc(NNc2c(C)nc3ccccc3nc2=O)cc1 | -14.9 | 2.31 µM [falling, partial curve] | 
COc1ccccc1C1CC(c2ccc(Cl)cc2)Nc2ncnn21 (stereo unspecified) |  |  | 0.146 µM [rising, full curve, poor fit]
CC(=O)Nc1cccc(NC(=O)Nc2cccc(Cl)c2C)c1 | 26.5 |  | 0.00517 µM [rising, full curve, poor fit]
COC(=O)CCC(=O)OC1(C)C(=O)C2=CN(C(CO)CO)C(c3ccc(OC)cc3)=CC2=C(Br)C1=O (stereo unspecified) | -22.5 |  | 0.0291 µM [falling, full curve]
CCOc1ccc(C(C(=O)NC2CCCCC2)N(C(=O)c2csnn2)C2CC2)cc1 (stereo unspecified) | 46.7 | 20.6 µM [rising, single point] | 
O=C(CN(C(=O)CCC(=O)Nc1ccccn1)c1cccc(F)c1)NCc1ccc2c(c1)OCO2 | -20 |  | 0.206 µM [rising, single point]
CC1(C)CC2CC(C)(CN2C(=O)c2cc(-c3ccccc3O)on2)C1 (stereo unspecified) | 23.2 |  | 5.17 µM [rising, partial curve]
NS(=O)(=O)c1ccc(NC(=S)NC(=O)/C=C/c2ccco2)cc1 | 12.5 | 6.51 µM [rising, single point] | 0.58 µM [rising, full curve, poor fit]
COc1ccccc1/C=N/NS(=O)(=O)c1ccccc1 | 17.3 |  | 0.461 µM [rising, full curve]
CCC(C(=O)OC(C)C)c1ccc2ccccc2c1 (stereo unspecified) | -31.8 | 4.61 µM [falling, single point] | 0.103 µM [rising, single point]
C=CCNC(=O)c1ccccc1NS(=O)(=O)c1ccc(OC)c(C(=O)N2CCOCC2)c1 | 17.9 |  | 4.11 µM [rising, partial curve]
Cc1cc(C(=O)Nc2ccc(Cl)c(S(=O)(=O)N3CCOCC3)c2)c2ccccc2n1 |  |  | 6.51 µM [falling, single point]
CCc1c(C)nc(SCC(=O)N2CCN(c3ccccc3OC)CC2)[nH]c1=O | -63.8 |  | 
O=C(CCc1ccccc1)Nc1nn[nH]n1 | -6.08 |  | 0.651 µM [falling, full curve, poor fit]
CC(=O)c1ccc(Sc2ccccc2)cc1 |  |  | 6.51 µM [falling, single point]
CCC(C(=O)OC)n1cnc2c(nnn2-c2ccc(C)cc2)c1=O (stereo unspecified) | 17.3 |  | 29.1 µM [rising, single point]
O=C(O)Cc1csc(NC(=O)CSc2nnnn2-c2ccc(O)cc2)n1 | -18.1 |  | 4.61 µM [falling, single point]
CCn1cc(/C=C/C(=O)Nc2ccn(Cc3c(F)c(F)cc(F)c3F)n2)cn1 |  | 0.58 µM [rising, single point] | 
CCOC(=O)Cc1csc(NC(=O)COc2ccc(OC)cc2)n1 | 0.737 |  | 
COc1cc2c(c(OC)c1OC)CC(=O)N(C)CC2 | -22.3 | 0.58 µM [falling, single point] | 0.82 µM [rising, single point]

3 entries from above, reformatted:
COC(=O)CNC(=O)C1CCN(S(=O)(=O)c2cnc[nH]2)CC1
  AC50 [2]: 0.291 µM [falling, full curve]
COc1ccc(NC(=O)CN2C(=O)NC3(CCCC3)C2=O)cc1Cl
  cell number change [%]: -15.3
  AC50 [2]: 0.58 µM [falling, single point]
CC(C)NC(=O)CCn1c(=S)oc2ccccc21
  cell number change [%]: 23.8
  AC50 [2]: 6.51 µM [falling, single point]
